In publication PMC9890231:
No constants are given. Whether binding was seen depends on the method and setting. Some results given as binding are weak or reduced against the parent protein; the word gives no strength.

T1: Brn1 (kleisin subunit of budding yeast condensin) (S. cerevisiae) (UniProt P38170)
T1 sequence: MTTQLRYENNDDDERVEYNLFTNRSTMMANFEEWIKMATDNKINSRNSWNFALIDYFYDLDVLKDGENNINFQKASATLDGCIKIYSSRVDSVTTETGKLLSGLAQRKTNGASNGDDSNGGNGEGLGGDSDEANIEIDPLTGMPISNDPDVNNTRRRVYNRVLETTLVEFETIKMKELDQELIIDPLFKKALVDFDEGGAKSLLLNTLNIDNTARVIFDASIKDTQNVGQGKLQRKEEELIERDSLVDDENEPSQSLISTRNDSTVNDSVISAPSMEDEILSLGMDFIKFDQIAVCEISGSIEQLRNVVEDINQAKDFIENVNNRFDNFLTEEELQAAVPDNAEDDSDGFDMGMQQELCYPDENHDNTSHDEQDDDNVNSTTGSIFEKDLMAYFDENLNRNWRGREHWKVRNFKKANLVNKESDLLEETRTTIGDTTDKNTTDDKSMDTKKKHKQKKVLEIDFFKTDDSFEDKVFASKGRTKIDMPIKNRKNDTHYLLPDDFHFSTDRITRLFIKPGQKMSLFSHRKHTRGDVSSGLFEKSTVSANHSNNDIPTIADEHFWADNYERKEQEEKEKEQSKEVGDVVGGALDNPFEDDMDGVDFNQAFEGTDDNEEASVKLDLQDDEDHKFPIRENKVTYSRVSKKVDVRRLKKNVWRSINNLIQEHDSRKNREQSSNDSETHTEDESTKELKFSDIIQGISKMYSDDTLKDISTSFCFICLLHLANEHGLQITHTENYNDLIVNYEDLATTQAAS


Biological target: T1, Brn1 (kleisin subunit of budding yeast condensin) (S. cerevisiae)
Assay: tandem affinity co-purification (HisTrap, Strep-Tactin) + SEC; subunits co-overexpressed in S. cerevisiae; cleared lysate on HisTrap (Brn1-His12), eluted with imidazole; then Strep-Tactin resin (Smc4-StrepII3), eluted with desthiobiotin; then Superose 6; holo-complex and ∆Ycg1 tetramer

| binding | Binder |
| --- | --- |
| binds | Ycg1 (HAWK subunit of budding yeast condensin) (protein, UniProt Q06680 1-1035) MQDPDGIDINTKIFNSVAEVFQKAQGSYAGHRKHIAVLKKIQSKAVEQGYEDAFNFWFDKLVTKILPLKKNEIIGDRIVKLVAAFIASLERELILAKKQNYKLTNDEEGIFSRFVDQFIRHVLRGVESPDKNVRFRVLQLLAVIMDNIGEIDESLFNLLILSLNKRIYDREPTVRIQAVFCLTKFQDEEQTEHLTELSDNEENFEATRTLVASIQNDPSAEVRRAAMLNLINDNNTRPYILERARDVNIVNRRLVYSRILKSMGRKCFDDIEPHIFDQLIEWGLEDRELSVRNACKRLIAHDWLNALDGDLIELLEKLDVSRSSVCVKAIEALFQSRPDILSKIKFPESIWKDFTVEIAFLFRAIYLYCLDNNITEMLEENFPEASKLSEHLNHYILLRYHHNDISNDSQSHFDYNTLEFIIEQLSIAAERYDYSDEVGRRSMLTVVRNMLALTTLSEPLIKIGIRVMKSLSINEKDFVTMAIEIINDIRDDDIEKQEQEEKIKSKKINRRNETSVDEEDENGTHNDEVNEDEEDDNISSFHSAVENLVQGNGNVSESDIINNLPPEKEASSATIVLCLTRSSYMLELVNTPLTENILIASLMDTLITPAVRNTAPNIRELGVKNLGLCCLLDVKLAIDNMYILGMCVSKGNASLKYIALQVIVDIFSVHGNTVVDGEGKVDSISLHKIFYKVLKNNGLPECQVIAAEGLCKLFLADVFTDDDLFETLVLSYFSPINSSNEALVQAFAFCIPVYCFSHPAHQQRMSRTAADILLRLCVLWDDLQSSVIPEVDREAMLKPNIIFQQLLFWTDPRNLVNQTGSTKKDTVQLTFLIDVLKIYAQIEKKEIKKMIITNINAIFLSSEQDYSTLKELLEYSDDIAENDNLDNVSKNALDKLRNNLNSLIEEINERSETQTKDENNTANDQYSSILGNSFNKSSNDTIEHAADITDGNNTELTKTTVNISAVDNTTEQSNSRKRTRSEAEQIDTSKNLENMSIQDTSTVAKNVSFVLPDEKSDAMSIDEEDKDSESFSEVC |
| binds | Smc4 (SMC subunit of budding yeast condensin) (protein, UniProt Q12267 1-1418) MSDSPLSKRQKRKSAQEPELSLDQGDAEEDSQVENRVNLSENTPEPDLPALEASYSKSYTPRKLVLSSGENRYAFSQPTNSTTTSLHVPNLQPPKTSSRGRDHKSYSQSPPRSPGRSPTRRLELLQLSPVKNSRVELQKIYDRHQSSSKQQSRLFINELVLENFKSYAGKQVVGPFHTSFSAVVGPNGSGKSNVIDSMLFVFGFRANKMRQDRLSDLIHKSEAFPSLQSCSVAVHFQYVIDESSGTSRIDEEKPGLIITRKAFKNNSSKYYINEKESSYTEVTKLLKNEGIDLDHKRFLILQGEVENIAQMKPKAEKESDDGLLEYLEDIIGTANYKPLIEERMGQIENLNEVCLEKENRFEIVDREKNSLESGKETALEFLEKEKQLTLLRSKLFQFKLLQSNSKLASTLEKISSSNKDLEDEKMKFQESLKKVDEIKAQRKEIKDRISSCSSKEKTLVLERRELEGTRVSLEERTKNLVSKMEKAEKTLKSTKHSISEAENMLEELRGQQTEHETEIKDLTQLLEKERSILDDIKLSLKDKTKNISAEIIRHEKELEPWDLQLQEKESQIQLAESELSLLEETQAKLKKNVETLEEKILAKKTHKQELQDLILDLKKKLNSLKDERSQGEKNFTSAHLKLKEMQKVLNAHRQRAMEARSSLSKAQNKSKVLTALSRLQKSGRINGFHGRLGDLGVIDDSFDVAISTACPRLDDVVVDTVECAQHCIDYLRKNKLGYARFILLDRLRQFNLQPISTPENVPRLFDLVKPKNPKFSNAFYSVLRDTLVAQNLKQANNVAYGKKRFRVVTVDGKLIDISGTMSGGGNHVAKGLMKLGTNQSDKVDDYTPEEVDKIERELSERENNFRVASDTVHEMEEELKKLRDHEPDLESQISKAEMEADSLASELTLAEQQVKEAEMAYVKAVSDKAQLNVVMKNLERLRGEYNDLQSETKTKKEKIKGLQDEIMKIGGIKLQMQNSKVESVCQKLDILVAKLKKVKSASKKSGGDVVKFQKLLQNSERDVELSSDELKVIEEQLKHTKLALAENDTNMNETLNLKVELKEQSEQLKEQMEDMEESINEFKSIEIEMKNKLEKLNSLLTYIKSEITQQEKGLNELSIRDVTHTLGMLDDNKMDSVKEDVKNNQELDQEYRSCETQDESEIKDAETSCDNYHPMNIDETSDEVSRGIPRLSEDELRELDVELIESKINELSYYVEETNVDIGVLEEYARRLAEFKRRKLDLNNAVQKRDEVKEQLGILKKKRFDEFMAGFNIISMTLKEMYQMITMGGNAELELVDSLDPFSEGVTFSVMPPKKSWRNITNLSGGEKTLSSLALVFALHKYKPTPLYVMDEIDAALDFRNVSIVANYIKERTKNAQFIVISLRNNMFELAQQLVGVYKRDNRTKSTTIKNIDILNRT |
